Results as given in patent US11591366B2, “Macrocyclic compounds and methods of preventing or treating pain” (SOCPRA SCIENCES SANTÉ ET HUMAINES S.E.C., priority 2017, dated 2023).
For some assays here: Not every detail of the peptide structures is certain; ends, links or a residue may be inferred. At least one compound was matched to its structure with a doubt left. Some entries share one result that the patent states for a list of compounds. Numbered stars: 1 amine (or outer) side, 2 acyl side, 3 side chain; on linkers, the order of the positions; unused ones are H or OH. Square brackets hold non-standard residues; d marks the D form. Peptide text beside a SMILES is read from it. X3 = NCCCC[C@H](N)CN([C@@H](CCCCN)C(=O)[*:2])[*:1]; Tle = CC(C)(C)[C@H](N)C(=O)O

Legend:
Assay type in all cases: in vivo, rat
Sprague-Dawley rats [1] = experiment: Tail-flick test (acute pain); parameters: Acute pain (tail beam) (I.T.): key to the marks not given beside the values; conditions: for Tail-flick latency versus saline/baseline: intrathecal; for Maximal possible effect (MPE): i.t., 10 min post-injection
Experimental: (§1) Experiments were performed with adult male Sprague-Dawley rats, weighing 225-300 g (Charles River laboratories, St-Constant, Canada). Rats were housed two per cage on Aspen shavings in a quiet room and kept on a 12 h light/dark cycle and allowed ad libitum access to food and water. The experimental procedures in this study were approved by the Animal Care Committee of Université de Sherbrooke (animal care protocol 035-13) and were in accordance with policies and directives of the Canadian Council on Animal Care.
Acute pain was assessed using the tail-flick test (Tail-Flick Analgesia meter V2.00, Colombus Instruments, Columbus, Ohio, USA). Tail-flick test measures sensitivity to a high-intensity light beam focused on the rat tail. The tail-flick apparatus was set at a light intensity of 6 and a cutoff of 10 sec. The latency, in seconds, to flick the tail out of the path of the light beam corresponds to the measure of pain sensitivity or analgesia.
Before testing, animals were individually acclimatized to manipulations and behavioral apparatus 5 min/day for three consecutive days. On the test day, latencies baseline measures were taken before drug injection to provide a mean baseline. […] The effects of compounds or saline on thermal nociception were assessed every 10 min for up to 60 min following i.t. administration.
Tail-flick latencies were converted into the percent maximal possible effect (% MPE) at the time of maxima peak of analgesia. % MPE were calculated according to the following formula: % MPE=[(Test latency)−(Saline latency)]/[(Cutoff)−(Saline latency)]×100. Data are expressed as mean±SEM of 3-8 animals for each different compound.
(§2) Data are expressed as mean±standard errors of the mean (SEM). All graphs and statistical analysis were performed using GraphPad Prism™ 7 (GraphPad software, La Jolla, Calif., USA). […] A difference in response was considered significant with p-values *p<0.05, **p<0.01, and ***p<0.001. […] Then, ED values were determined using the dose-response-stimulation log(agonist) vs response (three parameters).

Sprague-Dawley rats [2] = experiment: Body temperature (hypothermia); parameters: Hypothermia (I.T.): key to the marks not given beside the values; conditions: for Temperature drop: rat, 60 min after i.t. injection, 30 μg/kg
Experimental: Body temperature was measured using a thermistor probe inserted into the rectum of adult Sprague-Dawley rats. Prior to testing, animals were individually acclimatized to manipulations and thermistor probe 5 min/day for three consecutive days. On the test day, temperature was measured before (baseline) and each 10 min for up to 60 min following intrathecal drug administration of compounds. […] Changes in body temperature (Δ body temp) were determined from baseline for each time and each animal. Data represent the mean±SEM of 3-16 rats for each condition.
as §2

Sprague-Dawley rats [3] = experiment: Formalin test (tonic pain); parameters: Tonic pain (formalin) (I.T.): key to the marks not given beside the values
Experimental: as §1
5 min after intrathecal injection of compounds at 30 μg/kg, the rats received 50 μl of diluted 2% formaldehyde (i.e. 5% formalin; Bioshop, Burlington, Ontario) into the plantar surface of the right hind paw. […] Nociceptive behaviors were assessed using a weighted score as described previously. […] The weighted average pain intensity score ranging from 0 to 3 was then calculated by multiplying the time spent in each category by the category weight, summing these products, and dividing by the total time in a given time interval. The pain score was thus calculated from the following formula (1T1+2T2+3T3)/180 where T1, T2, and T3 are the durations (in seconds) spent in behavioral categories 1, 2, or 3, respectively, during each 180-sec block. […]
Data are expressed as mean±standard errors of the mean (SEM). […]

Compound | Tail-flick latency versus saline/baseline (Sprague-Dawley rats [1]; rat, 30 μg/kg) | Temperature drop (Sprague-Dawley rats [2]) [°C] | Maximal possible effect (MPE) (Sprague-Dawley rats [1]; rat, 30 μg/kg) [%] | also measured
CCC(C)[C@H](NC(=O)[C@@H]1Cc2ccc(O)c(c2)CC=CCNCCCC[C@H](N)C(=O)N[C@@H](CCCCN)C(=O)N2CCC[C@H]2C(=O)N1)C(=O)N[C@@H](CC(C)C)C(=O)O (some centres unmarked) [Compound 2, c[K(All)KPY(All)]IL] | significantly increased |  |  | % MPE at 30 min (Sprague-Dawley rats [1]; rat, I.T., 30 μg/kg, tail-flick): 30 μg/kg = 24%
CCC(C)[C@H](NC(=O)[C@@H]1Cc2ccc(O)c(c2)CC=CCNCCC[C@H](N)C(=O)N[C@@H](CCCCN)C(=O)N2CCC[C@H]2C(=O)N1)C(=O)N[C@@H](CC(C)C)C(=O)O (some centres unmarked) [Compound 7, c[Orn(All)KPY(All)]IL] |  | > 2 |  | 
CCC(C)[C@H](NC(=O)[C@@H]1Cc2ccc(O)c(c2)CC=CCCCCCC[C@](C)(N)C(=O)N[C@@H](CCCCN)C(=O)N2CCC[C@H]2C(=O)N1)C(=O)N[C@@H](CC(C)C)C(=O)O (some centres unmarked) [Compound 3, c[OctenylAKPY(All)]IL] | sustainably increased | > 2 | 70 | Acute pain (tail beam) (I.T.) (Sprague-Dawley rats [1]; 30 ug/kg): +++; Tonic pain (formalin) (I.T.) (Sprague-Dawley rats [3]; 30 ug/kg): +++; Pain score during the inflammatory phase (AUC) (Sprague-Dawley rats [3]; rat, i.t., 30 μg/kg, formalin test): significantly reduced; Hypothermia (I.T.) (Sprague-Dawley rats [2]; 30 ug/kg): +++
CCOC(=O)[C@H](CC(C)C)NC(=O)[C@@H](NC(=O)[C@H](Cc1c[nH]c2ccccc12)NC(=O)[C@@H]1CCCN1C(=O)[C@H](CCCCN)NC[C@@H](N)CCCCN)C(C)(C)C [PD149163, H-Lys-[ψCH2NH]-Lys-Pro-Trp-tertLeu-Leu-OEt, reference compound] (H-[X3]PW[Tle]L-OEt) |  |  | 75 | 
